In article PMC11337750:
Results are given in words; binding and its absence hold for the method and conditions named. Binding seen in cells or lysates may run through a third protein. Some binding calls cover weakened binding; strength is not graded here.

Amino acid sequences for entries named in this document (tags omitted). Residues count along the entry.
UniProt O60486, residues 35-1568: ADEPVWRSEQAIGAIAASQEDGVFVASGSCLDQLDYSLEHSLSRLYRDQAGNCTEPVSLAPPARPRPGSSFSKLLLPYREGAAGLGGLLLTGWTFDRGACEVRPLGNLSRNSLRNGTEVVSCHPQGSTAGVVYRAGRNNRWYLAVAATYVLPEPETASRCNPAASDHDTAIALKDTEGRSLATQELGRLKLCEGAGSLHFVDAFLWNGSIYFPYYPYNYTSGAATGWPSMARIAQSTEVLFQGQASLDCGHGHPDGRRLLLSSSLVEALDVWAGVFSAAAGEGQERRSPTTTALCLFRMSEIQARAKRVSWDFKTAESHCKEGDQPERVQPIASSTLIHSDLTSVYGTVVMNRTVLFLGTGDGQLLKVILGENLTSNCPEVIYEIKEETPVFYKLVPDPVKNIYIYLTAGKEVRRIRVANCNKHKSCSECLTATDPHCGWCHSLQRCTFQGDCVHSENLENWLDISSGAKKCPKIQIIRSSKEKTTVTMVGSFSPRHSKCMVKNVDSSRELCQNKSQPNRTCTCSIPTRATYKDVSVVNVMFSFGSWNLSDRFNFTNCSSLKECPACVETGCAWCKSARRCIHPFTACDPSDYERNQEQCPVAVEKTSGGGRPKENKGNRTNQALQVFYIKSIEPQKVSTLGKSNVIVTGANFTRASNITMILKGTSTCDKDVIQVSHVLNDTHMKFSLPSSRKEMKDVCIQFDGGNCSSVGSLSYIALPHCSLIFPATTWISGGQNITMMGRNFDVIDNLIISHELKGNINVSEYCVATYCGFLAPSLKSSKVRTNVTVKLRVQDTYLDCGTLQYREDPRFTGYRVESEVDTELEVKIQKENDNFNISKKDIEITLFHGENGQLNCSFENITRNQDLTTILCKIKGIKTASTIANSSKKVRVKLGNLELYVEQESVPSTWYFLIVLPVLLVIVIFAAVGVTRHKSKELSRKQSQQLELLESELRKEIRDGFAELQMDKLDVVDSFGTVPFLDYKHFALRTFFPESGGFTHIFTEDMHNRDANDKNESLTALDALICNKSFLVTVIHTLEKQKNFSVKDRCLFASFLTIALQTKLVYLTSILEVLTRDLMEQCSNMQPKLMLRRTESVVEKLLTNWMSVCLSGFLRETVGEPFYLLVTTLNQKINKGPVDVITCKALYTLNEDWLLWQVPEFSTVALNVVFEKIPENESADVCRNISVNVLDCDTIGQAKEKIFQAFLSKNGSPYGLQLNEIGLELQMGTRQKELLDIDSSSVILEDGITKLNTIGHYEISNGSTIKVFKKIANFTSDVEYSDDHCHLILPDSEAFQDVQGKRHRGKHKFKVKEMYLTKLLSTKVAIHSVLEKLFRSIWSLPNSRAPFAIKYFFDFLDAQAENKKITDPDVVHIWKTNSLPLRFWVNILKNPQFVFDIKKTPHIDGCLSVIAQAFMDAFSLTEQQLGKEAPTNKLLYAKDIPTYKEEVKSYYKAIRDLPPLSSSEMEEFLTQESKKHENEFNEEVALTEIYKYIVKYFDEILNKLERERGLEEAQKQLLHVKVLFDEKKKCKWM
UniProt Q8NFM4: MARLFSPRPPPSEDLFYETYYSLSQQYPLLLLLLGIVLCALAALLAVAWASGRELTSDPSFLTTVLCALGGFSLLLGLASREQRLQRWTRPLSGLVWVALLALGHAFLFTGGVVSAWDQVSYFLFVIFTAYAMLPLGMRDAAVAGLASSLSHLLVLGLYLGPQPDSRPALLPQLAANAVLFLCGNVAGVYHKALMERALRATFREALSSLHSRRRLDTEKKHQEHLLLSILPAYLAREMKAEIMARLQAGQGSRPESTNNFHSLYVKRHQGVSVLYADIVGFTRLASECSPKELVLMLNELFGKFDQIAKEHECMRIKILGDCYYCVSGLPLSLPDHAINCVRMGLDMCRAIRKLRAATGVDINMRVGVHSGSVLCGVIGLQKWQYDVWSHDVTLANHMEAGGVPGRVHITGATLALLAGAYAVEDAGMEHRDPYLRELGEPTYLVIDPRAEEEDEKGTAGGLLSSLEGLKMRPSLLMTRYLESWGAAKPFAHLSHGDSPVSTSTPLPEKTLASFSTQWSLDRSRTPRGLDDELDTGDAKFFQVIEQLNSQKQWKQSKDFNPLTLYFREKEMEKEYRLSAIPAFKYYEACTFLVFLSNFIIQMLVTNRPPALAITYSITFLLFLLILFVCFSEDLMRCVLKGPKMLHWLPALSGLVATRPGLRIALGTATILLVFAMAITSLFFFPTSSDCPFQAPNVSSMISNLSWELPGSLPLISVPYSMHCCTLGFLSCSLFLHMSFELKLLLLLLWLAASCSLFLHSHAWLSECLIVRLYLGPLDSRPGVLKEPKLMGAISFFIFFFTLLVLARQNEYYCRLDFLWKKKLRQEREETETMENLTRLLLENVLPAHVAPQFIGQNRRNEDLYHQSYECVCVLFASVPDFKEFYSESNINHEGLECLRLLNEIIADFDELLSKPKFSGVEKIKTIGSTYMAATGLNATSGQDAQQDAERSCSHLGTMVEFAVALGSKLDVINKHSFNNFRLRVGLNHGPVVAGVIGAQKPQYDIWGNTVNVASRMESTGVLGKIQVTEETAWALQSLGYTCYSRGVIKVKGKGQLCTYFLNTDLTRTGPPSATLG

Target: plexin C1 (PLXNC1) (human (endogenous in peripheral blood monocytes/macrophages)) (UniProt O60486)
Assay: co-IP; endogenous proteins in lysate of human peripheral blood monocytes/macrophages (transfected with LPS according to the legend of Fig. 4D); anti-Plexin C1 antibody immobilised on resin (Pierce Co-IP kit), 1 mg protein, overnight at 4 °C; eluate blotted for ADCY4; mouse or rabbit IgG as control

## adenylate cyclase 4 (ADCY4) (from UniProt Q8NFM4 1-1077) (enzyme)
  binding: binds
